Results from publication PMC6356071.
These are yes or no findings as the source states them, for the method shown. Some entries that bind do so weakly or less than the wild type.

Target: Dipeptidase 3 (human (endogenous in spermatozoa)) (UniProt Q9H4B8)
Assay: SDS-PAGE and Western blot; 20 ug total protein of WT and rs35033974 homozygous spermatozoa lysate on 4-15% SDS-PAGE, PVDF, rabbit polyclonal anti-DPEP3; bands at 75 kDa (monomers) and 150 kDa (dimers)

binding: binds
B1: Dipeptidase 3 (protein, UniProt Q9H4B8 36-463)
chain: AETTPGAPRALSTLGSPSLFTTPGVPSALTTPGLTTPGTPKTLDLRGRAQALMRSFPLVDGHNDLPQVLRQRYKNVLQDVNLRNFSHGQTSLDRLRDGLVGAQFWSASVSCQSQDQTAVRLALEQIDLIHRMCASYSELELVTSAEGLNSSQKLACLIGVEGGHSLDSSLSVLRSFYVLGVRYLTLTFTCSTPWAESSTKFRHHMYTNVSGLTSFGEKVVEELNRLGMMIDLSYASDTLIRRVLEVSQAPVIFSHSAARAVCDNLLNVPDDILQLLKKNGGIVMVTLSMGVLQCNLLANVSTVADHFDHIRAVIGSEFIGIGGNYDGTGRFPQGLEDVSTYPVLIEELLSRSWSEEELQGVLRGNLLRVFRQVEKVREESRAQSPVEAEFPYGQLSTSCHSHLVPQNGHQATHLEVTKQPTNRVPWRS
